Experimental data: article PMC10374565
No constants are given. Whether binding was seen depends on the method and setting. In cells and extracts the contact can be indirect. Some results given as binding are weak or reduced against the parent protein; the word gives no strength. Where a sequence is shown, tags or fusion partners need not be part of it.

Chains of the proteins cited; added tags and fusions are not shown.
UniProt P50990: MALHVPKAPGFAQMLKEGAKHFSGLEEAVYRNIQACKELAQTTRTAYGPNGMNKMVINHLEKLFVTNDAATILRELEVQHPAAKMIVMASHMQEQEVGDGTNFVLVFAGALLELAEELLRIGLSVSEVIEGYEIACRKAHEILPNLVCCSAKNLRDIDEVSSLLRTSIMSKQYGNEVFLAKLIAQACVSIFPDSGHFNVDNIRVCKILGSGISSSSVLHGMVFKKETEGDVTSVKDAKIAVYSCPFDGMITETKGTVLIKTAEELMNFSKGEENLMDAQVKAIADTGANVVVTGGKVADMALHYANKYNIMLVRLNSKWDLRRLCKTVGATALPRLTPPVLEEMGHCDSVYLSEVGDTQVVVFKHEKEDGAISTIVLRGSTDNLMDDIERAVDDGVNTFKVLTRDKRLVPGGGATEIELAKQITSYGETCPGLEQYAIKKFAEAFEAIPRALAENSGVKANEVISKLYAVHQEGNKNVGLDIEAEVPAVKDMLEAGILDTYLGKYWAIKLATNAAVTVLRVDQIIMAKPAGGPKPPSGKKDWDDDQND
UniProt P67809: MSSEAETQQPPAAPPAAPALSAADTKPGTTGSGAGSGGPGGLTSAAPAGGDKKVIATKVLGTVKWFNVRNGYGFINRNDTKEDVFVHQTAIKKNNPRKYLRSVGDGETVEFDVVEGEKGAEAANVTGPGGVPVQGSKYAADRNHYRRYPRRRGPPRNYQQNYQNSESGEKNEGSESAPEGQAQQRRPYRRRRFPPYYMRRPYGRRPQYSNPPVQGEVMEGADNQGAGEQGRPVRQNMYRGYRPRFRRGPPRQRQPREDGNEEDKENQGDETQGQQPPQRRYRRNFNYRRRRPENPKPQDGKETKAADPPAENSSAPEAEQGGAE

T1: Flag-tagged THOC3 (human) (UniProt Q96J01)
T1 sequence: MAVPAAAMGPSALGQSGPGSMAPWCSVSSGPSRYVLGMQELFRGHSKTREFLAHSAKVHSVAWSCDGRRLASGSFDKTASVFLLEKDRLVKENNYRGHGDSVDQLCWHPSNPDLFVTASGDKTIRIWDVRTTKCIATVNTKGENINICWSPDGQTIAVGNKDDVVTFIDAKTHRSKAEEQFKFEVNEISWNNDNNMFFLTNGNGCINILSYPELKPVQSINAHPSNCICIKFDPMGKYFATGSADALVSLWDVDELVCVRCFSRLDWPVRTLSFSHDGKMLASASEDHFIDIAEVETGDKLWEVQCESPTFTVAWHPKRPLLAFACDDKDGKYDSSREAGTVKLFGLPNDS

B1: CCT2 (protein, UniProt P78371 1-535)
chain: MASLSLAPVNIFKAGADEERAETARLTSFIGAIAIGDLVKSTLGPKGMDKILLSSGRDASLMVTNDGATILKNIGVDNPAAKVLVDMSRVQDDEVGDGTTSVTVLAAELLREAESLIAKKIHPQTIIAGWREATKAAREALLSSAVDHGSDEVKFRQDLMNIAGTTLSSKLLTHHKDHFTKLAVEAVLRLKGSGNLEAIHIIKKLGGSLADSYLDEGFLLDKKIGVNQPKRIENAKILIANTGMDTDKIKIFGSRVRVDSTAKVAEIEHAEKEKMKEKVERILKHGINCFINRQLIYNYPEQLFGAAGVMAIEHADFAGVERLALVTGGEIASTFDHPELVKLGSCKLIEEVMIGEDKLIHFSGVALGEACTIVLRGATQQILDEAERSLHDALCVLAQTVKDSRTVYGGGCSEMLMAHAVTQLANRTPGKEAVAMESYAKALRMLPTIIADNAGYDSADLVAQLRAAHSEGNTTAGLDMREGTIGDMAILGITESFQVKRQVLLSAAEAAEVILRVDNIIKAAPRKRVPDHHPC

Tests used:
[1] = target: T1, Flag-tagged THOC3 (human); experiment: condition: only cells incubated with 50 μg/ml cycloheximide for 5 h; co-IP; cells transfected with Flag-tagged THOC3 for 18 h, then incubated with 50 μg/ml cycloheximide for 5 h; immunoprecipitates blotted with anti-CCT8/CCT6A antibodies
[2] = target: T1, Flag-tagged THOC3 (human); experiment: co-IP; lysates of H1703 cells transfected with Flag-tagged THOC3; IP with anti-CCT8, anti-CCT6A, anti-YBX1, anti-Flag or IgG antibody (Protein A/G agarose or Flag magnetic beads), Western blot; also lysates prepared in the presence or absence of ATP and MgCl2

Row | Molecule | binding [1] | binding [2]
1 | CCT8 (from UniProt P50990 1-548) | no binding | binds
2 | YBX1 (from UniProt P67809 1-324) | – | binds
3 | B1 | – | binds
